Measurements from US12492232B2, “Methods for producing proteins” (South Australian Health and Medical Research Institute …, priority 2018, dated 2025).
Some of these results come from one statement about several compounds together.

system: ExpiCHO-S™ cells; test: Rabbit IgG secretion by ExpiCHO-S cells stably expressing Rheb variants (Easy-Titer Rabbit IgG Assay); type: cell-based; conditions: ExpiCHO-S stable lines, 10 days, n=3
Procedure: Materials and Methods: ExpiCHO-S™ cells were purchased from ThermoFischer Scientific and cultured in ExpiCHO™ Expression Medium at 37° C. at 8% CO2. […] Transfected cells were grown in 600 μg/mL […] for 6 weeks. Surviving cells were plated as single cells in a 96-well plate and monoclonal colonies selected for FLAG-Rheb expression.
Rabbit IgG secretion was determined using the ExpiCHO™ Expression system according to the manufacturer's instructions. Briefly, ExpiCHO™ cells expressing either endogenous Rheb or stably expressing exogenous Rheb were seeded at 6×10^6 cells/mL in 25 mL of ExpiCHO™ Expression Medium and transfected with 20 μg of a pcDNA3.1 vector encoding heavy and light chains of Rabbit IgG at a 1:2 ratio of heavy chain:light chain using ExpiFectamine™ CHO Reagent. 24 hours after transfection, cells were feed with ExpiCHO™ Feed and ExpiFectamine™ CHO Enhancer and transferred to 32° C., 5% CO2. Cells were allowed to grow for 10 days with 100 μL samples taken every day. After 10 days, Cells were pelleted by centrifugation at 4000×g for 30 minutes at 4° C. and the supernatant filtered through a […] PVFD filter and collected. IgG yield was determined using Easy-Titer™ Rabbit IgG Assay kit and calculated from a standard curve.

Substance | yield of rabbit IgG [g/L]
Rheb-E40K: human Rheb protein with a lysine variant at residue 40 (E40K), SEQ ID NO. 5 | 5 to 6
Rheb-T23M: human Rheb protein with a methionine variant at residue 23 (T23M), SEQ ID NO. 3 | 5 to 6
Rheb-Y35N: human Rheb protein with an asparagine variant at residue 35 (Y35N), SEQ ID NO. 4 | 2 to 3
